Literature values as cited in patent publication US20180280397A1, “RATIONAL COMBINATION THERAPY FOR THE TREATMENT OF CANCER” (Memorial Sloan Kettering Cancer Center, priority 2015, published 2018).
For at least one compound, name, drawing or mass did not settle the structure.

Tested on: HER2+ tumors
Conditions: patients with progressive disease after trastuzumab therapy; cited from earlier work

C=CCNC1=C2C[C@@H](C)C[C@H](OC)[C@H](O)[C@@H](C)/C=C(\C)[C@H](OC(N)=O)[C@@H](OC)/C=C\C=C(/C)C(=O)NC(=CC1=O)C2=O [17-AAG, 17-N-Allylamino-17-demethoxygeldanamycin]
clinical response: elicited responses
